The chains behind the UniProt entries cited, without tags or fusion partners.
UniProt Q9Z1S8: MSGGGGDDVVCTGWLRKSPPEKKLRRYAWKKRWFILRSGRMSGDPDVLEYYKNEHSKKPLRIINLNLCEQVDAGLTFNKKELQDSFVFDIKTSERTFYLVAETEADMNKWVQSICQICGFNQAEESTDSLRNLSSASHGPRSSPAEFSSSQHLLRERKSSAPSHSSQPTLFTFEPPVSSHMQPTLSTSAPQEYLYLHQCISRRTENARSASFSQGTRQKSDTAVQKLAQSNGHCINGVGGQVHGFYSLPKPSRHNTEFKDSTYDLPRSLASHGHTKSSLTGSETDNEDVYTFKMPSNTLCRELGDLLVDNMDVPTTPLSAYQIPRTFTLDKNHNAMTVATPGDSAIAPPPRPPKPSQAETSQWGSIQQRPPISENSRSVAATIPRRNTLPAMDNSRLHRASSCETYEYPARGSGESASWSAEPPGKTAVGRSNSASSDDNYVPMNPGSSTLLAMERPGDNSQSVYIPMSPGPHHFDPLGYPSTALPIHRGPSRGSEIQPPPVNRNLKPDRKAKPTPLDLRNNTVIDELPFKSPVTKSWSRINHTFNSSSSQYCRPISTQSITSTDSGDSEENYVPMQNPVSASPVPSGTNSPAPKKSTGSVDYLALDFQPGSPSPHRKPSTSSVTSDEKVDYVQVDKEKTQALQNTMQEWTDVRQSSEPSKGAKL
UniProt P42337: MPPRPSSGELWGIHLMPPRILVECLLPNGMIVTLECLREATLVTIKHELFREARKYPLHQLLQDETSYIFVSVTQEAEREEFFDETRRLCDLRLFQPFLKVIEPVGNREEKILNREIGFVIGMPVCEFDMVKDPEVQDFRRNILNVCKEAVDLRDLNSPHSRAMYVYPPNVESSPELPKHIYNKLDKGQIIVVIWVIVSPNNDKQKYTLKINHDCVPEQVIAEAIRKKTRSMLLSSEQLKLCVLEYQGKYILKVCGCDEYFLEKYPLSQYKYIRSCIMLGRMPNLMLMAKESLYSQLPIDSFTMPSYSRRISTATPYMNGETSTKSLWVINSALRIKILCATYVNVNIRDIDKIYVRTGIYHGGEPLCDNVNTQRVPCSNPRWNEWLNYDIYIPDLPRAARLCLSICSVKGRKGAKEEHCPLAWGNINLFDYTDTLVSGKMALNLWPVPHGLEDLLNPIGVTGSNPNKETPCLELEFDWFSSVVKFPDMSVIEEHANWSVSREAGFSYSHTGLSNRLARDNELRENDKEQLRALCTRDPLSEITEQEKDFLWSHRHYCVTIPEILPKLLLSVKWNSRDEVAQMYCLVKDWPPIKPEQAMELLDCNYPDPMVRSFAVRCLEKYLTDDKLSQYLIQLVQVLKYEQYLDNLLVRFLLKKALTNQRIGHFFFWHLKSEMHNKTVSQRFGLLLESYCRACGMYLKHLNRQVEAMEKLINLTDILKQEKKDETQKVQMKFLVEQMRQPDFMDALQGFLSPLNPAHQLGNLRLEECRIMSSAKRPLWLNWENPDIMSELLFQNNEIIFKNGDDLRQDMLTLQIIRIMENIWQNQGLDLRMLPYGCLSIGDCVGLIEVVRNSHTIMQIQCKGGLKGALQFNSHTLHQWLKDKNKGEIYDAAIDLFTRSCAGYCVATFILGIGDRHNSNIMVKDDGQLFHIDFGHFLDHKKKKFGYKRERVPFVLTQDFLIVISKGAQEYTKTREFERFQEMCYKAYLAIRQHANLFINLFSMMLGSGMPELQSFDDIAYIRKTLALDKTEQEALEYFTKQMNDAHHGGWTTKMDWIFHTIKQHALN
UniProt Q8BTI9: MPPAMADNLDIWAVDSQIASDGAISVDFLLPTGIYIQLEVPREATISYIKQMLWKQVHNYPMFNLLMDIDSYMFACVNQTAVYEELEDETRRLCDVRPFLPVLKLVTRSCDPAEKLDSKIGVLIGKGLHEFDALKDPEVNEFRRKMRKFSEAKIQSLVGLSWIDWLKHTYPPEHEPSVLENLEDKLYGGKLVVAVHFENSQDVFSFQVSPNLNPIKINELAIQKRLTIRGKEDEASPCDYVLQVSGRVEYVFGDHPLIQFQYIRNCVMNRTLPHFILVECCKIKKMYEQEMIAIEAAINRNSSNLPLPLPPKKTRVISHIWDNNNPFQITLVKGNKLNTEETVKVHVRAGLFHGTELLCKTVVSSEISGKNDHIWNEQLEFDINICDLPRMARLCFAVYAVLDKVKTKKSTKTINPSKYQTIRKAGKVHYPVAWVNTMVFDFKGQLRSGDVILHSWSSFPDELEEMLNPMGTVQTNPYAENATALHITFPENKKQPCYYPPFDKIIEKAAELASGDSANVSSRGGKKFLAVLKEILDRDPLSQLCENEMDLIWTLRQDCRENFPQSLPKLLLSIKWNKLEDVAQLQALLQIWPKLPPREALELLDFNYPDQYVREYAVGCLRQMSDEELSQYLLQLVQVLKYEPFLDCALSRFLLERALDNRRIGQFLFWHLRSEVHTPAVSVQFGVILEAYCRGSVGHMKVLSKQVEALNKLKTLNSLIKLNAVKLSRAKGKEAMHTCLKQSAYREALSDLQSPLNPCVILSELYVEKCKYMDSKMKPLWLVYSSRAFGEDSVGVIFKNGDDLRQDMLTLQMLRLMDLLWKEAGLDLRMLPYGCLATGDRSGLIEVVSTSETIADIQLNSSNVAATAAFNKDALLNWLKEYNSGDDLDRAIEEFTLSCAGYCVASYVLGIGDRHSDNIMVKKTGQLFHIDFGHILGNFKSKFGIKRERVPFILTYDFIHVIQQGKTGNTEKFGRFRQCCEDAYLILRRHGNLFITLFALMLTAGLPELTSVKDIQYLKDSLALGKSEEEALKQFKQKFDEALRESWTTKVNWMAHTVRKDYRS
UniProt P26450: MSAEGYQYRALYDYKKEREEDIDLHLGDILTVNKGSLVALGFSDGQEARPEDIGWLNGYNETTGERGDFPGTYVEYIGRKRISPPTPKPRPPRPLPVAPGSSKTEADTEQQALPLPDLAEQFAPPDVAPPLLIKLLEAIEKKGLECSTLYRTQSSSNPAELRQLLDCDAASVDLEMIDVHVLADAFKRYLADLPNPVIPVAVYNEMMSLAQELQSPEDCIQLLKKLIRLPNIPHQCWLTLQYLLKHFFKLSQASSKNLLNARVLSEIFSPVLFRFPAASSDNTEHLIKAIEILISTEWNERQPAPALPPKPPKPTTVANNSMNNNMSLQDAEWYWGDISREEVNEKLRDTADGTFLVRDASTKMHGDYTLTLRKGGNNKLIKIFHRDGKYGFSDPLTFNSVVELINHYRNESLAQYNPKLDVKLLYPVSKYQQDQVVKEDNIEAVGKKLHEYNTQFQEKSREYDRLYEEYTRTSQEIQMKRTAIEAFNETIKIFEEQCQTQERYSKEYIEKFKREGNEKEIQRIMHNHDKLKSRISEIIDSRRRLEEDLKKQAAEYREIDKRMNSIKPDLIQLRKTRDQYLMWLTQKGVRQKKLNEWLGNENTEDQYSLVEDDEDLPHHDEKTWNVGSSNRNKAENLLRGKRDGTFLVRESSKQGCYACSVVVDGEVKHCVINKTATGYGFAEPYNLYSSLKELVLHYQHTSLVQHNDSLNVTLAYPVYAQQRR

According to PMC12578389:

What follows are molecules tested against GAB2 (Grb2-associated binding protein 2) fused to TurboID, bait (UniProt Q9Z1S8) (assay: proximity labelling; TurboID fused to the N- or C-terminus of the bait, MSCV retrovirus in primary lineage-depleted murine bone marrow HSPCs of the genotypes WT, Dnmt3a^R878H/+ or Dnmt3a^R878H/+ x Npm1^cA/+; streptavidin bead pulldown, mass spectrometry, spectral counts against TurboID alone).

Row | binding | Molecule
1 | binds | CBL, endogenous in murine bone marrow HSPCs (from UniProt P22682 1-913)
2 | binds | PI4KA, endogenous in murine bone marrow HSPCs (from UniProt E9Q3L2 1-2105)
3 | binds | PIK3CA, endogenous in murine bone marrow HSPCs (from UniProt P42337 1-1068)
4 | binds | PIK3CB, endogenous in murine bone marrow HSPCs (from UniProt Q8BTI9 1-1064)
5 | binds | PIK3R1 (PI3K regulatory subunit), endogenous in murine bone marrow HSPCs (from UniProt P26450 1-724)
6 | binds | PIK3CD (PI3 kinase p110 subunit), endogenous in murine bone marrow HSPCs (protein, UniProt O35904 1-1043) MPPGVDCPMEFWTKEESQSVVVDFLLPTGVYLNFPVSRNANLSTIKQVLWHRAQYEPLFHMLSDPEAYVFTCVNQTAEQQELEDEQRRLCDIQPFLPVLRLVAREGDRVKKLINSQISLLIGKGLHEFDSLRDPEVNDFRTKMRQFCEEAAAHRQQLGWVEWLQYSFPLQLEPSARGWRAGLLRVSNRALLVNVKFEGSEESFTFQVSTKDMPLALMACALRKKATVFRQPLVEQPEEYALQVNGRHEYLYGNYPLCHFQYICSCLHSGLTPHLTMVHSSSILAMRDEQSNPAPQVQKPRAKPPPIPAKKPSSVSLWSLEQPFSIELIEGRKVNADERMKLVVQAGLFHGNEMLCKTVSSSEVNVCSEPVWKQRLEFDISVCDLPRMARLCFALYAVVEKAKKARSTKKKSKKADCPIAWANLMLFDYKDQLKTGERCLYMWPSVPDEKGELLNPAGTVRGNPNTESAAALVIYLPEVAPHPVYFPALEKILELGRHGERGRITEEELQLREILERRGSGELYEHEKDLVWKMRHEVQEHFPEALARLLLVTKWNKHEDVAQMLYLLCSWPELPVLSALELLDFSFPDCYVGSFAIKSLRKLTDDELFQYLLQLVQVLKYESYLDCELTKFLLGRALANRKIGHFLFWHLRSEMHVPSVALRFGLIMEAYCRGSTHHMKVLMKQGEALSKLKALNDFVKVSSQKTTKPQTKEMMHMCMRQETYMEALSHLQSPLDPSTLLEEVCVEQCTFMDSKMKPLWIMYSSEEAGSAGNVGIIFKNGDDLRQDMLTLQMIQLMDVLWKQEGLDLRMTPYGCLPTGDRTGLIEVVLHSDTIANIQLNKSNMAATAAFNKDALLNWLKSKNPGEALDRAIEEFTLSCAGYCVATYVLGIGDRHSDNIMIRESGQLFHIDFGHFLGNFKTKFGINRERVPFILTYDFVHVIQQGKTNNSEKFERFRGYCERAYTILRRHGLLFLHLFALMRAAGLPELSCSKDIQYLKDSLALGKTEEEALKHFRVKFNEALRESWKTKVNWLAHNVSKDNRQ

Results are given in words; binding and its absence hold for the method and conditions named. Binding seen in cells or lysates may run through a third protein. A yes stands for co-enrichment or nearness to the bait. Other partners may have been found.
